For assay [1], the target named is T1, HA-TAK1 (UniProt Q62073 1-579, limits assumed).
T1 construct: I recall the cited Yamaguchi 1995 clone as mouse TAK1 (Q62073); human TAK1 is O43318; also called HA-tagged TAK1 protein
T1 sequence (looked up): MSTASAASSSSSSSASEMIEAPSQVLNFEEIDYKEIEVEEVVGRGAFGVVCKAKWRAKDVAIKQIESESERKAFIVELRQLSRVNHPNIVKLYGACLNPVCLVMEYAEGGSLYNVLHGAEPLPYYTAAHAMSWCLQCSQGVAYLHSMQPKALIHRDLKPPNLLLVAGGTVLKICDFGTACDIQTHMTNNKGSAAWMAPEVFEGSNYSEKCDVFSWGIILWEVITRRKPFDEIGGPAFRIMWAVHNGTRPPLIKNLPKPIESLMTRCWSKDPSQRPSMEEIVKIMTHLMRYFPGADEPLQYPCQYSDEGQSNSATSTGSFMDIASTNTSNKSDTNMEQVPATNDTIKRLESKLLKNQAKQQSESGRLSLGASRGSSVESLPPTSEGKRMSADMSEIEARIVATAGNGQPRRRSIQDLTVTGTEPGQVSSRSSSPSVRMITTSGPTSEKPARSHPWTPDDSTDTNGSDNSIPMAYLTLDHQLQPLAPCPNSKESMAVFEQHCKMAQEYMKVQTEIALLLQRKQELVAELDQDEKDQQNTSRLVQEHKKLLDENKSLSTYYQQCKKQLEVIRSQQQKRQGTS
Kind of assay: coimmunoprecipitation from transfected 293 cells: IP anti-T7, immunoblot anti-HA (FIG. 1B legend).

The target in assay [2] is T1, HA-TAK1. Nature of the assay: coimmunoprecipitation from transfected 293 cells: IP anti-T7, immunoblot anti-HA. How it is done:
293 cells were transiently transfected with an expression vector for HA-TAK1 in combination with empty vector (−) or with expression vectors for T7-TAB2-Full length (Full), T7-TAB2C (C), or T7-TAB2N (N) as indicated. Cell extracts were immunoprecipitated (IP) with anti-T7 (7) or mouse IgG (C). Coprecipitated HA-TAK1 was detected by immunoblotting (IB) with anti-HA (upper panel, left). The amounts of immunoprecipitated T7-TAB2 proteins were determined with anti-T7 (lower panel). Whole cell extracts were immunoblotted with anti-HA to determine total amounts of HA-TAK1 (upper panel, right). Schematic representation of various TAB2 constructs is shown in the lower part. The coiled-coil regions are indicated by solid boxes.

Assay [3] deals with T1, HA-TAK1. Nature of the assay: coimmunoprecipitation from 293 cells coexpressing T7-TAB2C, Flag-TRAF6 and HA-TAK1: IP anti-HA, immunoblot anti-T7. In general terms: Immunoblotting shows a protein as a band on a membrane.

No constants are given. Whether binding was seen depends on the method and setting. In cells and extracts the contact can be indirect. Some entries that bind do so weakly or less than the wild type. Where a sequence is shown, tags or fusion partners need not be part of it.

B1: T7-TAB2-Full length (protein)
chain: MASMTGGQQMGMAQGSHQIDFQVLHDLRQKFPEVPEVVVSRCMLQNNNNLDACCAVLSQESTRYLYGEGDLNFSDDSGISGLRNHMTSLNLDLQSQNIYHHGREGSRMNGSRTLTHSISDGQLQGGQSNSELFQQEPQTAPAQVPQGFNVFGMSSSSGASNSAPHLGFHLGSKGTSSLSQQTPRFNPIMVTLAPNIQTGRNTPTSLHIHGVPPPVLNSPQGNSIYIRPYITTPGGTTRQTQQHSGWVSQFNPMNPQQVYQPSQPGPWTTCPASNPLSHTSSQQPNQQGHQTSHVYMPISSPTTSQPPTIHSSGSSQSSAHSQYNIQNISTGPRKNQIEIKLEPPQRNNSSKLRSSGPRTSSTSSSVNSQTLNRNQPTVYIAASPPNTDELMSRSQPKVYISANAATGDEQVMRNQPTLFISTNSGASAASRNMSGQVSMGPAFIHHHPPKSRAIGNNSATSPRVVVTQPNTKYTFKITVSPNKPPAVSPGVVSPTFELTNLLNHPDHYVETENIQHLTDPTLAHVDRISETRKLSMGSDDAAYTQALLVHQKARMERLQRELEIQKKKLDKLKSEVNEMENNLTRRRLKRSNSISQIPSLEEMQQLRSCNRQLQIDIDCLTKEIDLFQARGPHFNPSAIHNFYDNIGFVGPVPPKPKDQRSIIKTPKTQDTEDDEGAQWNCTACTFLNHPALIRCEQCEMPRHF
For B1, the binding result in assay [1] and in assay [2] was “binds” throughout.

B2: T7-TAB2C (protein)
chain: MASMTGGQQMGMRNQPTLFISTNSGASAASRNMSGQVSMGPAFIHHHPPKSRAIGNNSATSPRVVVTQPNTKYTFKITVSPNKPPAVSPGVVSPTFELTNLLNHPDHYVETENIQHLTDPTLAHVDRISETRKLSMGSDDAAYTQALLVHQKARMERLQRELEIQKKKLDKLKSEVNEMENNLTRRRLKRSNSISQIPSLEEMQQLRSCNRQLQIDIDCLTKEIDLFQARGPHFNPSAIHNFYDNIGFVGPVPPKPKDQRSIIKTPKTQDTEDDEGAQWNCTACTFLNHPALIRCEQCEMPRHF
As to B2, the binding result in assay [3] and in assay [2] was “binds” each time.

The record behind these values is patent US20030040050A1 (published 2003).
